The values below come from article PMC8565929 (eLife, 2021).

Experiment [1] concerns the target T1, DDK (Hsk1-HA with Dfp1-myc) (S. pombe) (UniProt P50582+O59836).
T1 sequence 1: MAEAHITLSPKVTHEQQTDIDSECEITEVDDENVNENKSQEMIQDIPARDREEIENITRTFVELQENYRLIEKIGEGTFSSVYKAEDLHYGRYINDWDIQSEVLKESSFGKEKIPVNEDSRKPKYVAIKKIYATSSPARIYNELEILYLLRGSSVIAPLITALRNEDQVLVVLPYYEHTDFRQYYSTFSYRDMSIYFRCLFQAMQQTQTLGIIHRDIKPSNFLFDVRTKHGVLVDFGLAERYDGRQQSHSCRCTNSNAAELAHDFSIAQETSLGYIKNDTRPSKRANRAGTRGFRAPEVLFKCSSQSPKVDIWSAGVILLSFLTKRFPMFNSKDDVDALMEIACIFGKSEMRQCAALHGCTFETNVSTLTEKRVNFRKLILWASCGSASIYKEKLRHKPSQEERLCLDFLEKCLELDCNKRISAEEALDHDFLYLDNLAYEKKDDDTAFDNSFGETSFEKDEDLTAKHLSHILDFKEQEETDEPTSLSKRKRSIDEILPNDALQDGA
T1 sequence 2: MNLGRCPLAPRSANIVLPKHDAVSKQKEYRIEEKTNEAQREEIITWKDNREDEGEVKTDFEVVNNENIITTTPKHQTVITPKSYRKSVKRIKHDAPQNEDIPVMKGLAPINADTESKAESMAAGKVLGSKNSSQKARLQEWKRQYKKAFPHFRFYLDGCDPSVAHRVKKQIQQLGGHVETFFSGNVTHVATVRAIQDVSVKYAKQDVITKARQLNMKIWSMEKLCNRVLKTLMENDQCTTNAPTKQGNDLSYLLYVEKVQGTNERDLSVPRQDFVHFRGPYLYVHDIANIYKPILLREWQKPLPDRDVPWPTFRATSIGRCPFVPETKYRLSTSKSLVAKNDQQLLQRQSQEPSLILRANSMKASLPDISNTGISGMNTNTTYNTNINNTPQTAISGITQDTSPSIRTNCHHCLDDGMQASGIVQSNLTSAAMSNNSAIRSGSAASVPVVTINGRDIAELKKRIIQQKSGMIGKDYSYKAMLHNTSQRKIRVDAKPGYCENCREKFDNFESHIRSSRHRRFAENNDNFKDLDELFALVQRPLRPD
Briefly: cross-linking + co-IP.

Experiment [2] has as its target T2, HA-Pof3 (pSLF272 vector) (S. pombe) (UniProt O74991).
T2 sequence: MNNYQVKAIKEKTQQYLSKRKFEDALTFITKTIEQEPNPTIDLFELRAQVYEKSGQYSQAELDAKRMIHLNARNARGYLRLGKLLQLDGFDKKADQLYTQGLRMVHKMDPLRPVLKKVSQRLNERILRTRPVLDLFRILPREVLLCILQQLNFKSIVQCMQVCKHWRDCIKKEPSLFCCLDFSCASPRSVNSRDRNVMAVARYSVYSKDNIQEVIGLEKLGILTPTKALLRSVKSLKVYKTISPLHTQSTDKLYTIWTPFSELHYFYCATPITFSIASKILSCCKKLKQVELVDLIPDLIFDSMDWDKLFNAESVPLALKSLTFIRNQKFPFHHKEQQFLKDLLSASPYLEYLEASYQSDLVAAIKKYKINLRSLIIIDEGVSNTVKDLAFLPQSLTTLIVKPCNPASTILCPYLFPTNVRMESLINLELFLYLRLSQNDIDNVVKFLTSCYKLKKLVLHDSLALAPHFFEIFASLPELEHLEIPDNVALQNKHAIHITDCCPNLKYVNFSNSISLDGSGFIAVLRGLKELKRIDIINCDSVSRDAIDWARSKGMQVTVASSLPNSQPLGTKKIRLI
Briefly: co-IP.

Experiment [3] has as its target T2, HA-Pof3 (pSLF272 vector) (S. pombe). Briefly: co-IP. The source holds these as a separate data set.

Read-outs that look alike come from different tables or passages of the source. Results are given in words; binding and its absence hold for the method and conditions named. Binding seen in cells or lysates may run through a third protein. Some entries that bind do so weakly or less than the wild type. Tags and fused reporters may be left off the sequences shown.

B1: TAP-tagged Hst4 (pREP81 vector) (protein, UniProt Q9UR39 1-415)
chain: MKVEEHVPLIQESRKRKCQSSENASKRQQLLSKLPLRLHTGNENVDLSPLVSAIRKAKRIVVVTGAGISCDAGIPDFRSSEGLFSSLRAEYKLNCSGKELFDGSVYRDLKSVNIFHAMIRKLHMLSNNARPTDFHLFLSQLAQESKLLRLYTQNIDFLETRLEGLQTCIPLPQSAPWPTTIPLHGTLEVVSCTRCSFLKKFNPDIFDRNGVTVCPDCKTENEVRRIAGKRSVIEGCLRPRIVLYNEIHPDSESIGSVCSQDLKSRPDCLIVAGTSCKIPGVKRIIKEMSNCVHKQKGNVIWLNYDEPTKDFLNLCDLVVQGDLQIAIRRLKPLLDAPSWKLKSHSAKRTSKQKSSEQTKITSSTKITKAIGLNTKSNDSSKKDNTSFQLHQVLNSIEIPKVEIKQEVEYATPSPL
Regarding B1, the binding entry in experiment [1] is “binds”.

B2: Hst4-TAP (genomic TAP-tagged Hst4) (protein, UniProt Q9UR39 1-415)
chain: B1 chain
On to B2, for which the binding result in experiment [2] and in experiment [3] was “binds” throughout.
